## Percent effect of library compounds

Data taken from ChEMBL document CHEMBL3988442, “University of Dundee, Small-Polar-MMV Screening Library” (2021).

Results are given as percent effect. How 0% and 100% were set is not recorded. Most values in the screen are low, and negative values occur. Compounds were drawn at random from those tested, without regard to their results. Two or more numbers in one place are separate tests of the same structure; such repeats can differ widely.

Mtb glucose medium: 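Phenotypic screen: M. tuberculosis growth, glucose 7H9 medium, 3 days; the read-out is not stated. Tested at 50 µM. Direction is inferred from retests: higher values go with more growth inhibition. Of about 69,000 compounds tested this way, about 760 (1.1%) reached 50% or more in at least one test.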
Mtb cholesterol medium: 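Whole-cell growth test on Mycobacterium tuberculosis, read after 4 days in a medium based on cholesterol and the lipid DPPC; the read-out is not stated. Concentration: 50 µM. The record gives no direction; compounds that gave an IC50 in retests scored well above the rest, so higher reads as more growth inhibition. Size under these conditions: about 69,000 compounds, about 370 of them at 50% or above in at least one test.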

Cc1nc(CN2CCCN(C(=O)c3c(C)noc3C)CC2)cs1 read Mtb glucose medium: -28.19%; Mtb cholesterol medium: -6.401%. Result for O=C(Cn1cc(NC(=O)c2ccc(F)cc2F)cn1)NC1CCCC1 was Mtb glucose medium: 20.23%; Mtb cholesterol medium: 12.06% & -2.612%. Cc1cc2[nH]c(CN3CCOC(c4ccc(F)cc4)C3)cc(=O)n2n1 (centres unmarked) read Mtb glucose medium: -30.31%; Mtb cholesterol medium: -6.209%. For Cc1ccc(-n2cc(C(=O)NCc3nnc4n3CCCCC4)nn2)cc1 the result was Mtb glucose medium: -11.84%; Mtb cholesterol medium: -16%. With COc1ccccc1C(=O)NC[C@H]1COCc2nc3c(C)cccc3n21 the screen gave Mtb glucose medium: 1.435% & 7.731%; Mtb cholesterol medium: -2.882%. Result for OC1(CN2CCCC2)COCCN(c2cc(C(F)(F)F)ccn2)C1 (centres unmarked) was Mtb glucose medium: 12.6% & 4.386%; Mtb cholesterol medium: 7.369%. CCN1CC2(CCC1=O)CCN(Cc1cccc(OC(F)F)c1)CC2 gave Mtb glucose medium: -14.46%; Mtb cholesterol medium: -25.04%. For COCCOCC(=O)Nc1ccccc1F the result was Mtb glucose medium: 10.26%; Mtb cholesterol medium: 0.1466%.

NC(=O)COc1cccc(C(=O)N2CCCC(n3ccnc3)C2)c1 (centres unmarked) read Mtb glucose medium: 17.7%; Mtb cholesterol medium: -6.044%. With Cc1nc(NCCSc2ccccn2)c2c(C)noc2n1 the screen gave Mtb glucose medium: 29.51%; Mtb cholesterol medium: -3.762%. CCCn1nc2c(cc1=O)CN(CC1CCCCO1)CC2 (centres unmarked) gave Mtb glucose medium: -11.38%; Mtb cholesterol medium: -13.87%. With CC(C(=O)NCc1ccc(-n2cncn2)nc1)S(C)(=O)=O (centres unmarked) the screen gave Mtb glucose medium: -3.324%; Mtb cholesterol medium: 10.35%. C/C=C(\C)CN1CCCn2nc(CNC(=O)C3CCC3)cc2C1 gave Mtb glucose medium: -15.76%; Mtb cholesterol medium: -12.99% & -9.77%. Result for CCOc1cccc(C(C)NCc2ccc(OC)c(OC)c2OC)c1 (centres unmarked) was Mtb glucose medium: 30.74%; Mtb cholesterol medium: 21.75%. Cc1nc(NCC(O)CN2CCCCCC2)c2c(C)nn(C)c2n1 (centres unmarked) gave Mtb glucose medium: 35.39%; Mtb cholesterol medium: 10.54%. With O=C(O)C(F)(F)F.O=C(O)C(F)(F)F.c1cncc(OCC2CN(Cc3nccs3)Cc3nccn3C2)c1 (centres unmarked) the screen gave Mtb glucose medium: 4.894%; Mtb cholesterol medium: 2.435%.

Cn1c(N)c2c(=O)n(C)c(-c3ccc(Cl)cc3)cc2c(C#N)c1=O gave Mtb glucose medium: 0.7028% & 11.29%; Mtb cholesterol medium: 0.3791%. CCOCCC(=O)N1CCCC(CO)(CC2CC2)C1 (centres unmarked) gave Mtb glucose medium: 12.95% & 1.154%; Mtb cholesterol medium: 11.76%. For O=C(CSCC1CC1)N1CCCN(Cc2ccc(F)cc2)CC1 the result was Mtb glucose medium: -28.09% & -0.5773%; Mtb cholesterol medium: 20.28%. Result for CCN(C)S(=O)(=O)NCC1CCN(Cc2ccccc2C)CC1 was Mtb glucose medium: -14.74%; Mtb cholesterol medium: -9.574%. O=C(O)CN1CCc2onc(C(c3ccccc3)c3ccccc3)c2C1 gave Mtb glucose medium: -37.51%; Mtb cholesterol medium: -15.63%. Cn1ccnc1CN1CC2(CCN(Cc3ccncc3)C2)C1 gave Mtb glucose medium: 5.474% & 22.28%; Mtb cholesterol medium: 1.569%. Result for Cc1ncsc1C(=O)N1CCC(Nc2cccnn2)CC1 was Mtb glucose medium: -1.055%; Mtb cholesterol medium: -0.3051%. Result for Cc1cc(C)n(-c2nc(NCCCO)c3c4c(sc3n2)CCCC4)n1 was Mtb glucose medium: 60.08%; Mtb cholesterol medium: 40.84%.

O=C(O)C(F)(F)F.[H][C@]12CN(c3ncccn3)C[C@@]1(C(=O)N(C)C)CCCN(S(=O)(=O)CC)C2 read Mtb glucose medium: -0.196%; Mtb cholesterol medium: 6.44%. Result for COCC(=O)N1CCCCC1c1nc(CN(C)C(C)=O)cc(N(C)C)n1 (centres unmarked) was Mtb glucose medium: -33.18%; Mtb cholesterol medium: -2.298% & -41.46%. For Cc1nc(CN2CCC23CCN(Cc2ccco2)CC3)cs1 the result was Mtb glucose medium: 40.16%; Mtb cholesterol medium: 11.72%. Result for [H][C@]1([C@H](O)c2ccc(NC(=O)c3cccc(C#N)c3)cc2)COCC(=O)N1 was Mtb glucose medium: -0.2372% & 3.877%; Mtb cholesterol medium: 4.638%. Result for O=C(c1ccc(O)nc1)N1CCC(Nc2cccnn2)CC1 was Mtb glucose medium: 0.3293%; Mtb cholesterol medium: 10.11%. With CCCOc1ccc(OCCN2CCOCS2(=O)=O)cc1 the screen gave Mtb glucose medium: 16.4%; Mtb cholesterol medium: 13.17%. Result for Cc1nn2c(N3CCCC(C(N)=O)C3)cc(-c3ccccc3)nc2c1C (centres unmarked) was Mtb glucose medium: 27.3%; Mtb cholesterol medium: -3.745% & 11.77%. With CCn1cnnc1C1CCN(C(=O)c2ccc(OC(C)C)nc2)CC1 the screen gave Mtb glucose medium: 6.518%; Mtb cholesterol medium: -9.326%.

Some entries from above, unchanged:

compound	Mtb glucose medium	Mtb cholesterol medium
CCn1cnnc1C1CCN(C(=O)c2ccc(OC(C)C)nc2)CC1	6.518	-9.326
O=C(O)C(F)(F)F.[H][C@]12CN(c3ncccn3)C[C@@]1(C(=O)N(C)C)CCCN(S(=O)(=O)CC)C2	-0.196	6.44
OC1(CN2CCCC2)COCCN(c2cc(C(F)(F)F)ccn2)C1 (centres unmarked)	12.6 & 4.386	7.369
O=C(Cn1cc(NC(=O)c2ccc(F)cc2F)cn1)NC1CCCC1	20.23	12.06 & -2.612